No constants are given. Whether binding was seen depends on the method and setting. Binding seen in cells or lysates may run through a third protein. Some entries that bind do so weakly or less than the wild type. For some of these results: Sequences can lack the tags named with a protein.
Tests used:
GFP-tagged OFD1 = molecular target: T1, GFP-tagged OFD1 (UniProt O75665); experiment: proximity ligation; PANC1 cells expressing GFP-OFD1; primary antibodies against GFP and E2F4; E2F4 knockdown cells as specificity control
T1 sequence: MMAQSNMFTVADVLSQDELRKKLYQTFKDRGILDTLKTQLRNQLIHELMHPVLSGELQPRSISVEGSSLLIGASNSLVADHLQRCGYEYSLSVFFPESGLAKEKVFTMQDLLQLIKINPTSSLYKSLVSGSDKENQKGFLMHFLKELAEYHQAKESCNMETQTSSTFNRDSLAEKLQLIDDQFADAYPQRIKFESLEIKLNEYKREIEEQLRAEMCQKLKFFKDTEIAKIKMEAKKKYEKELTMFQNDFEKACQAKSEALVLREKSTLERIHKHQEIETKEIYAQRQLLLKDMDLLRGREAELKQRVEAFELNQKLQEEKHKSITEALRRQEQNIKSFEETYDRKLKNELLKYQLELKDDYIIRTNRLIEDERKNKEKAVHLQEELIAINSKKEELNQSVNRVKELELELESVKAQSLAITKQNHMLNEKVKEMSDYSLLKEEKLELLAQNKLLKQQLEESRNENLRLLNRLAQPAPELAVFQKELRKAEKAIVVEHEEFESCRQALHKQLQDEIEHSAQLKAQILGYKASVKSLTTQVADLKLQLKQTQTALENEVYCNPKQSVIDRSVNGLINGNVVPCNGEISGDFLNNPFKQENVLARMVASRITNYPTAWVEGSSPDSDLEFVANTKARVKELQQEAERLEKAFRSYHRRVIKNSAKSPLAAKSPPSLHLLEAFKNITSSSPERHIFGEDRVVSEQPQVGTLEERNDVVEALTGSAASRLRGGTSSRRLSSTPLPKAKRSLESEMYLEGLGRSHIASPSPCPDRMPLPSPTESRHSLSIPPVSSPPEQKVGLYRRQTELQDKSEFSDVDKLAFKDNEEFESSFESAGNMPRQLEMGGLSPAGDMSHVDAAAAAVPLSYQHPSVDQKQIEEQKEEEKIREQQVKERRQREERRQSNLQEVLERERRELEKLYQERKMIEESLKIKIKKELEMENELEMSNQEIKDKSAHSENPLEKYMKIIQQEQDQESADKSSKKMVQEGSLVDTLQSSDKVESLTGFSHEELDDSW

By UniProt entry, the sequences of proteins in these tests, tags left out.
UniProt Q16254: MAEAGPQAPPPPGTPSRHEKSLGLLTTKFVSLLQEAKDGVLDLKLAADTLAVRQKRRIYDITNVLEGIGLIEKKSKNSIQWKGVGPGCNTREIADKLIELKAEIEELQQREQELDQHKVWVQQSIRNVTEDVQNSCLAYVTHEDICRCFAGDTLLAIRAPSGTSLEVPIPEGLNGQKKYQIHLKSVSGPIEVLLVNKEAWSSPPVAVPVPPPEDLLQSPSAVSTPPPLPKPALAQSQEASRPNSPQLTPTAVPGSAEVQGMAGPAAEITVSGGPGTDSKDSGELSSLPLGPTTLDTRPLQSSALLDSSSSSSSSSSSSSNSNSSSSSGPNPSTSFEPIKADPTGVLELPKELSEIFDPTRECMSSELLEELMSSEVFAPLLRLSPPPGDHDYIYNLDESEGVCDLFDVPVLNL
UniProt Q09028: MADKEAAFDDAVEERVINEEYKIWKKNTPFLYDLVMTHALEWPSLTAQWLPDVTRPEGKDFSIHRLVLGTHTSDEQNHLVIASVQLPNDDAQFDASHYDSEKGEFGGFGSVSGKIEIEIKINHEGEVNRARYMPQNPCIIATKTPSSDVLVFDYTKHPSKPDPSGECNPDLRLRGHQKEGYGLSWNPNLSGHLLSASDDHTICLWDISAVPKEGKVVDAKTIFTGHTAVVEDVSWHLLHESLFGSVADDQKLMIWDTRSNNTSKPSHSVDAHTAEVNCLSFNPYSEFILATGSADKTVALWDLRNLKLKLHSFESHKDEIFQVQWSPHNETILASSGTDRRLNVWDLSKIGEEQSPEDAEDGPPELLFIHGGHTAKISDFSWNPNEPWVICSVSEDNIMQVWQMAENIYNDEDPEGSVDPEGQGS

[1] = molecular target: T2, OFD1 (Oral-Facial-Digital Syndrome 1 protein), endogenous (human (endogenous in SW1990, MIA PaCa-2, PATU8988T)) (UniProt O75665); experiment: co-IP; endogenous proteins, whole-cell lysates of SW1990, MIA PaCa-2 and PATU8988T cells; protein G magnetic beads with antibodies against OFD1 or E2F4, IgG as negative control; TAP lysis buffer washes
T2 sequence: T1 sequence

[2] = molecular target: T3, OFD1, exogenous in HEK293T (mapping co-immunoprecipitation) (UniProt O75665); experiment: co-IP; HEK293T cells transfected with the indicated plasmids, 48 h; TAP lysis buffer; anti-Flag M2 affinity gel, 3 h at 4 °C, eluted with Flag peptide
T3 sequence: T1 sequence

[3] = molecular target: E2F4, endogenous (human (endogenous in PANC1, MIA PaCa-2, SW1990, PATU8988T)) (UniProt Q16254); experiment: co-IP; endogenous proteins, whole-cell lysates of PANC1-Tet-shOFD1 and MIA PaCa-2-Tet-shOFD1 cells, with or without OFD1 knockdown or palbociclib (0.5 μM for 48 h); protein G magnetic beads with antibody overnight, TAP lysis buffer washes

Substance: E2F4, endogenous (from UniProt Q16254 1-413)
- binding (GFP-tagged OFD1): binds
- binding [1]: binds

Substance: E2F4, exogenous in HEK293T (mapping co-immunoprecipitation) (from UniProt Q16254 1-413)
- binding [2]: binds

Substance: RBBP4, endogenous (from UniProt Q09028 1-425)
- binding [3]: binds
